# Experimental data as given in the supplement of paper PMC10849652.
# Amino acid sequences for entries named in this document (tags omitted). A change or cut given only in a name is not applied to a line headed by its entry.
# UniProt P31949: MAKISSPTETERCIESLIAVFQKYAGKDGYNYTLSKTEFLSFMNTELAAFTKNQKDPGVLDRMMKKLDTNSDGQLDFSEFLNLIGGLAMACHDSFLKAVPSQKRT
# UniProt O00442: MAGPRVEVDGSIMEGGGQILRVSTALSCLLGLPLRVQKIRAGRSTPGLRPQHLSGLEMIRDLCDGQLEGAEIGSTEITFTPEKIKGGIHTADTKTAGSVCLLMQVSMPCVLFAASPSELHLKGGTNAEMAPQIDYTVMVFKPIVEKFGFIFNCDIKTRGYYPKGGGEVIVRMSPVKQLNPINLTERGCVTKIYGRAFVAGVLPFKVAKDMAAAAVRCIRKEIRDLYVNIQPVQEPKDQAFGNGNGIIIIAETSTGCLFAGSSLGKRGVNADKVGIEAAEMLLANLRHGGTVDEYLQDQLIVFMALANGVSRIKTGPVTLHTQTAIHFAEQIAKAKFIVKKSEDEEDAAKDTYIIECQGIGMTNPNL
# UniProt Q9HA92: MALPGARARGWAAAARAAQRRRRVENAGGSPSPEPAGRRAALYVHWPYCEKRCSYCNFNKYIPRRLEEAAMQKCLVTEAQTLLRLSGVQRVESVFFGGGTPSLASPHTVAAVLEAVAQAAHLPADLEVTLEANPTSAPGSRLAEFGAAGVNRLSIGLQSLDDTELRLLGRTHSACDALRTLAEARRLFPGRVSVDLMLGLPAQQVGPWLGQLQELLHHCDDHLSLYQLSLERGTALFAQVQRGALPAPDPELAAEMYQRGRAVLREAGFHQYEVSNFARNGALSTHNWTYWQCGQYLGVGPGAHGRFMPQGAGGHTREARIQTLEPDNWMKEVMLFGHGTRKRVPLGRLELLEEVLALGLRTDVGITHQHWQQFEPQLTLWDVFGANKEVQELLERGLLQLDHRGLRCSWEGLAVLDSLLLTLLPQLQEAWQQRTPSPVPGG
# UniProt O95059: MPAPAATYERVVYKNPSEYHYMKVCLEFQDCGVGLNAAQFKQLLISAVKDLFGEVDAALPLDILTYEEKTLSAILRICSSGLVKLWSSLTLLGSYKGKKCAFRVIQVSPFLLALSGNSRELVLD
# UniProt P78345: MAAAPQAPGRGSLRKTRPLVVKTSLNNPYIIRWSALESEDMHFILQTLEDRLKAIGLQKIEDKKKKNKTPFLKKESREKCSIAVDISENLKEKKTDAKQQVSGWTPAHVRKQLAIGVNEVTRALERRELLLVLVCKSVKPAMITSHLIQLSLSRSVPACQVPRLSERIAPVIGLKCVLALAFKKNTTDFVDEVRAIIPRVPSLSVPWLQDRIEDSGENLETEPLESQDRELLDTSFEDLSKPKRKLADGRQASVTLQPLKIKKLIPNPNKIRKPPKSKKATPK
# UniProt P57060: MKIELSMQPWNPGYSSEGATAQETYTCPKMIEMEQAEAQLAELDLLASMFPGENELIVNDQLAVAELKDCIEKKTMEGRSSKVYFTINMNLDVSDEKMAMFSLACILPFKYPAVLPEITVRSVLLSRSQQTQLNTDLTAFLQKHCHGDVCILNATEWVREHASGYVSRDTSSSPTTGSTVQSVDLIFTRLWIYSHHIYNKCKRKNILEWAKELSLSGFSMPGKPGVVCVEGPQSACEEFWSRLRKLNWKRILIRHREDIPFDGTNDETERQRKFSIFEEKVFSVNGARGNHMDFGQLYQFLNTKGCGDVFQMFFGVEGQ
# UniProt Q92766: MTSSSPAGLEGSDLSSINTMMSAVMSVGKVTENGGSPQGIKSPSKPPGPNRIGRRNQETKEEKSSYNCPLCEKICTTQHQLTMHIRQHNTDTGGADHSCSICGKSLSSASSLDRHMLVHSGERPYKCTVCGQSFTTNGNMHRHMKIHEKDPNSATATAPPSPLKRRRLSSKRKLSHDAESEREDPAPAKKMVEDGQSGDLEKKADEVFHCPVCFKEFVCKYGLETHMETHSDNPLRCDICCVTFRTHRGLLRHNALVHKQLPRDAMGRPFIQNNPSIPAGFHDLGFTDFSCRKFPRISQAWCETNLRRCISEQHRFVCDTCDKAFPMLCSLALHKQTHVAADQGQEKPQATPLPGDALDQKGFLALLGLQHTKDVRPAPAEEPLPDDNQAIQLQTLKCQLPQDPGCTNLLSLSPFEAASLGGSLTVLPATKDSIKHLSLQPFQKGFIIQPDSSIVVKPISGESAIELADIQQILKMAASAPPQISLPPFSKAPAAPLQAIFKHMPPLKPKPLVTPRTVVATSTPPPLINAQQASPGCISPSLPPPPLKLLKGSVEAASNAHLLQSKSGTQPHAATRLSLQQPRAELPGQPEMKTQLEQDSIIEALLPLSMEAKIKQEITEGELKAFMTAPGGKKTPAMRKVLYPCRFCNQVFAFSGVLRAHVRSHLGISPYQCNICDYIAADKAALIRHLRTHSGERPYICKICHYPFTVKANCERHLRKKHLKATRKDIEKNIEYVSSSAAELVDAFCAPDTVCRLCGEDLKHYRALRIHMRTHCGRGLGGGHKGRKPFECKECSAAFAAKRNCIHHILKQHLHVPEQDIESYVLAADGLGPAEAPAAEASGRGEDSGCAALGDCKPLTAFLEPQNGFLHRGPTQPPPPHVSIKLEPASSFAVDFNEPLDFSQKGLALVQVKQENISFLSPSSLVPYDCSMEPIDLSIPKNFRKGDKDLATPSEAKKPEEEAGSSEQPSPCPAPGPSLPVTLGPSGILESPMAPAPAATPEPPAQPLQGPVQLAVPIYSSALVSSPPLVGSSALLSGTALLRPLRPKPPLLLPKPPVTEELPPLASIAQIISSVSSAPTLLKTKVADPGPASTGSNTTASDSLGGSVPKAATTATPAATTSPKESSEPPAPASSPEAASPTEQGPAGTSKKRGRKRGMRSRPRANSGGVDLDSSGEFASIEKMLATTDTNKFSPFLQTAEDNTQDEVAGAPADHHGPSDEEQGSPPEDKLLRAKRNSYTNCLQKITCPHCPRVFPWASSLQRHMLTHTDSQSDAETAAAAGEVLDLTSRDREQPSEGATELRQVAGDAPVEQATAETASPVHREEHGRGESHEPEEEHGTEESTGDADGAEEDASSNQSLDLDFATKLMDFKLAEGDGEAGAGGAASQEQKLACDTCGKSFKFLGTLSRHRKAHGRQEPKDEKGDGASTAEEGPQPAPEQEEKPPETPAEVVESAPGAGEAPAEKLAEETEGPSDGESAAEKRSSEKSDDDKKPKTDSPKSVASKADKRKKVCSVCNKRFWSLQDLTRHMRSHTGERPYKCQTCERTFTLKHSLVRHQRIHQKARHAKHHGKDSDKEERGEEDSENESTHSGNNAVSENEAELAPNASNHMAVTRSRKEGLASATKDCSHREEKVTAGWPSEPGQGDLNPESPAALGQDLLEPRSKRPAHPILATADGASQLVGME
# UniProt Q96T23: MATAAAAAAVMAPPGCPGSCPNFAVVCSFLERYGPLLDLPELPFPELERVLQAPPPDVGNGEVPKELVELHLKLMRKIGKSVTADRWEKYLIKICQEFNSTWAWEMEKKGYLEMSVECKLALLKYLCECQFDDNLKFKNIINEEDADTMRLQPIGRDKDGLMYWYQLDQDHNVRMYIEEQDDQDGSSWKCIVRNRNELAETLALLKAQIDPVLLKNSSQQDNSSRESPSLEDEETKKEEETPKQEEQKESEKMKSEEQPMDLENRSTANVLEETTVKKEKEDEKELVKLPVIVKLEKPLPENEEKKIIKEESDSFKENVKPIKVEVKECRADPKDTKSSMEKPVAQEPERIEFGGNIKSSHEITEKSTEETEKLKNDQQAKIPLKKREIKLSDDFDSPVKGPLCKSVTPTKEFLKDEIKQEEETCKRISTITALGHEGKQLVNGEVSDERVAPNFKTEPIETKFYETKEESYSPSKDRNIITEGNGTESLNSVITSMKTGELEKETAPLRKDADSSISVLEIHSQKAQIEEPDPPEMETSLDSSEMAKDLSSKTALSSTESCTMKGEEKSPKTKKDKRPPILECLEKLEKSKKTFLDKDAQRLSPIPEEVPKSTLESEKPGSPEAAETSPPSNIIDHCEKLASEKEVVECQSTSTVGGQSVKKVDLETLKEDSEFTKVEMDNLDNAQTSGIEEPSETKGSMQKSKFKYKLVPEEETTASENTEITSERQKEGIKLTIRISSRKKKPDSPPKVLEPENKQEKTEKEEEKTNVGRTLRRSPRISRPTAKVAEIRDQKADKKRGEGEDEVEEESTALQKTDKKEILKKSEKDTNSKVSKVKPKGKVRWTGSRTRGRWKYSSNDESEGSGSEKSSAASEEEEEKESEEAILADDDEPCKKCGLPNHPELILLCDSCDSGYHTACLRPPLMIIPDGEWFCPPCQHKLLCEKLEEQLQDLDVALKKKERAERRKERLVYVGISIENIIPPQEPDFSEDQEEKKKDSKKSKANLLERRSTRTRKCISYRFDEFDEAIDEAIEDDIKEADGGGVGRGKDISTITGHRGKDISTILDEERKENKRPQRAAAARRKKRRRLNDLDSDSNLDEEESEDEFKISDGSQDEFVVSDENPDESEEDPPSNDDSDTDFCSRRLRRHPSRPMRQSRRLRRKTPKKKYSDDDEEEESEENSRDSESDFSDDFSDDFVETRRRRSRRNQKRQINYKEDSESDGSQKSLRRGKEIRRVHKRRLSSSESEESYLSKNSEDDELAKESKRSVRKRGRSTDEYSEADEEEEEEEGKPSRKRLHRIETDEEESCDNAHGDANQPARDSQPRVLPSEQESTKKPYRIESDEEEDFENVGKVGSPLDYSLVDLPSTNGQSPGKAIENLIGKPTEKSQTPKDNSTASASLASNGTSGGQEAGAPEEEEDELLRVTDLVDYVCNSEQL
# UniProt Q6PCB5: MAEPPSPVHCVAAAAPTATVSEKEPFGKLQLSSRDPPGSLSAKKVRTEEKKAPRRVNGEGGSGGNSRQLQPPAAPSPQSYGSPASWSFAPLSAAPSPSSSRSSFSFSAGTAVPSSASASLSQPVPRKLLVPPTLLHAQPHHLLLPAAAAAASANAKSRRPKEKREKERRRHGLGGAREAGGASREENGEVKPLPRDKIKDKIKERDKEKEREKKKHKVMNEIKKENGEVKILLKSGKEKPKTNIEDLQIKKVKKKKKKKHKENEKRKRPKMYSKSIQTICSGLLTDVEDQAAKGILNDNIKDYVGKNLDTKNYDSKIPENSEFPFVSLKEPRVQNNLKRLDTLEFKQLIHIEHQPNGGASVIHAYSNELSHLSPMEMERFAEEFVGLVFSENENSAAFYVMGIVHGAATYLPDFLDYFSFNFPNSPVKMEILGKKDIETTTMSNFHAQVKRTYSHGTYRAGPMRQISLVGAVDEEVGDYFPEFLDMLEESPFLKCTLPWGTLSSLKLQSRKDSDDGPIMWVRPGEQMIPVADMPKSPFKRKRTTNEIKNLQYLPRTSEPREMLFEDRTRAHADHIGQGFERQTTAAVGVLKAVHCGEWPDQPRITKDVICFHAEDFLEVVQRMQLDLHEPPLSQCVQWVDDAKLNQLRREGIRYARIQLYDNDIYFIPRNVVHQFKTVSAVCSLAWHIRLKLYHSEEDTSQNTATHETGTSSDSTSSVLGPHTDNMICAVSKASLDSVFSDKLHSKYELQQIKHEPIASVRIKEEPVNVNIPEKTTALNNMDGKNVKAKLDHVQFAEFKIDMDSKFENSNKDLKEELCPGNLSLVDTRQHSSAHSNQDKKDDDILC
# UniProt P04844: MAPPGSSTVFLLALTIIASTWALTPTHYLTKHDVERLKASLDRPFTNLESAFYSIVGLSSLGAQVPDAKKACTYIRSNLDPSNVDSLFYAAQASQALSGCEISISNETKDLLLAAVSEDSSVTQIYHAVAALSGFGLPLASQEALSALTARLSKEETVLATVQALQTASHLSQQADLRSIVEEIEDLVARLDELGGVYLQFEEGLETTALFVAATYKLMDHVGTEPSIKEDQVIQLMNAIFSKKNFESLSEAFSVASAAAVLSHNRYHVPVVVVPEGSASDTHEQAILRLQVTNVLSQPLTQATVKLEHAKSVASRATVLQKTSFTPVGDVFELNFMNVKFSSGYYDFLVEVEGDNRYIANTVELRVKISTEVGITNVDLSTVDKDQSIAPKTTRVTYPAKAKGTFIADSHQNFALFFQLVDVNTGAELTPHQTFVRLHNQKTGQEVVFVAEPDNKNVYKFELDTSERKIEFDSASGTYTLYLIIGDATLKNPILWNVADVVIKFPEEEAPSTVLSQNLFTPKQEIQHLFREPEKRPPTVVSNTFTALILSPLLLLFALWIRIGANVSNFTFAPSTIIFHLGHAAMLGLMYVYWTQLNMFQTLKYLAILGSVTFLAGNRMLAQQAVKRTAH
# UniProt Q9Y3A4: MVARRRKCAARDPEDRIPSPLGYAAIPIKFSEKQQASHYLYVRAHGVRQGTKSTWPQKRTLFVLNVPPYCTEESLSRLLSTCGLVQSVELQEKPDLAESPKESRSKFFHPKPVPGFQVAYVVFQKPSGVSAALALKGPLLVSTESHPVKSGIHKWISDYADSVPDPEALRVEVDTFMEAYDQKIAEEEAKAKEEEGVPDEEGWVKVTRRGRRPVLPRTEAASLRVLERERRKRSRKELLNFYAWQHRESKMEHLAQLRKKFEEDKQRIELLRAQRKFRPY
# The other results are listed elsewhere or left out.
# Compound: CC1=C(C=C(C=C1)NC(=O)C2=CC(=CC=C2)N(C)C)NC(=O)C3=CC=C(C=C3)O
# Assay: log2 fold change, soluble protein after heating vs DMSO (PISA); higher = thermal stabilisation; K562 lysate, 10 uM; active = over 0.2 and 3.5 SD of the protein, either way, in both replicates (recomputed)
# In short: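 Soluble protein was defined as the supernatant remaining after 21,000xg for 90 min, following pooling of heated aliquots and adjustment to 0.5% NP-40 at 4°C. Before that, crude K562 extract at 1 mg/mL protein in PBS pH 7.4 with 1 mM MgCl2 was treated with 10 μM compound for 30 min and heated for 3 min across 48°C-58°C. Quantification used TMTpro 16plex LC-MS/MS with channel sums equalised, and values are log-two fold changes in thermal stability relative to solvent controls from duplicates.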
row,Target,log2 fold change
1,RPS27L (UniProt Q71UM5),inactive: -0.049
2,RTTN (UniProt Q86VV8),inactive: -0.004
3,S100A11 (UniProt P31949),inactive: 0.028
4,RTCA (UniProt O00442),inactive: 0.012
5,S100A2 (UniProt P29034),inactive: -0.094
6,RSRC2 (UniProt Q7L4I2),inactive: -0.002
7,RYR1 (UniProt P21817),inactive: -0.032
8,RSAD1 (UniProt Q9HA92),inactive: 0.086
9,RPP14 (UniProt O95059),inactive: 0.008
10,RPS26 (UniProt P62854),inactive: 0.012
11,RPP38 (UniProt P78345),inactive: 0.011
12,RPUSD4 (UniProt Q96CM3),inactive: 0.064
13,RWDD2B (UniProt P57060),inactive: 0.046
14,RREB1 isoform 2 (UniProt Q92766),inactive: 0.042
15,RPP25L (UniProt Q8N5L8),inactive: -0.023
16,RSF1 (UniProt Q96T23),inactive: -0.002
17,S100A14 (UniProt Q9HCY8),inactive: 0.058
18,RPS6KA3 (UniProt P51812),inactive: 0.006
19,RSBN1L (UniProt Q6PCB5),inactive: 0.008
20,RPN2 (UniProt P04844),inactive: -0.015
21,RPS2 (UniProt P15880),inactive: 0.003
22,RPS3A (UniProt P61247),inactive: 0.012
23,RRP7A (UniProt Q9Y3A4),inactive: 0.059
24,RPS24 isoform 4 (UniProt P62847),inactive: 0.032

# Laid out differently: entries from further up
row | Target | log2 fold change
13 | RWDD2B (UniProt P57060) | inactive: 0.046
14 | RREB1 isoform 2 (UniProt Q92766) | inactive: 0.042
